Laboratory results from patent US20160279215A1, “NOVEL PEPTIDES AND COMBINATION OF PEPTIDES FOR USE IN IMMUNOTHERAPY AGAINST VARIOUS TUMORS” (immatics biotechnologies GmbH, priority 2015, published 2016).
For some assays here: Expression values are those of the mRNA of the gene that encodes the peptide; a gene is named only where it was looked up.

Legend:
Design in all cases: species or system human
[1] = Identification and label-free relative LC-MS quantitation of HLA-presented peptides on tumor and normal tissue samples (XPRESIDENT presentation profiles); details: for Additional entities of particular interest (presentation of selected peptides across entities): tumor entities on which the HLA-presented peptide was found, entity abbreviations defined in the title of Table 4B; for Entities of particular interest: entities where the peptide was over-presented on cancer samples compared to normal tissues
[2] = system: source genes of the peptides (mRNA) in tumor and normal tissue; assay: Expression profiling of source genes by RNAseq (target coverage); details: share of tumors with more than 1.5-fold over-expression vs highest-expressing relevant normal tissue; for Target coverage for source genes, AML (%): acute myeloid leukemia; for Target coverage for source genes, BRCA (%): breast cancer; for Target coverage for source genes, CLL (%): chronic leukemia (CLL); for Target coverage for source genes, OSCAR (%): esophageal cancer incl. gastric-oesophageal junction; for Target coverage for source genes, GBC_CCC (%): gallbladder adenocarcinoma and cholangiocarcinoma; for Target coverage for source genes, MEL (%): melanoma; for Target coverage for source genes, NHL (%): non-Hodgkin lymphoma; for Target coverage for source genes, OC (%): ovarian cancer; for Target coverage for source genes, SCLC (%): small cell lung cancer; for Target coverage for source genes, UBC (%): urinary bladder cancer; for Target coverage for source genes, UTC (%): uterine cancer
[3] = system: source genes of the peptides (mRNA) in tumor and normal tissue; assay: Expression profiling of source genes by Affymetrix microarrays (target coverage); details: over-expression = more than 1.5-fold higher expression on tumor vs. normal tissue with highest expression, gene with minimal coverage decisive

| Substance | Additional entities of particular interest (presentation of selected peptides across entities) [1] | Target coverage for source genes, AML (%) [2] | Target coverage for source genes, BRCA (%) [2] | Target coverage for source genes, CLL (%) [2] | Target coverage for source genes, OSCAR (%) [2] | Target coverage for source genes, GBC_CCC (%) [2] | Target coverage for source genes, MEL (%) [2] | Target coverage for source genes, NHL (%) [2] | Target coverage for source genes, OC (%) [2] | Target coverage for source genes, SCLC (%) [2] | Target coverage for source genes, UBC (%) [2] | Target coverage for source genes, UTC (%) [2] | Entities of particular interest [1] | other results |
| --- | --- | --- | --- | --- | --- | --- | --- | --- | --- | --- | --- | --- | --- | --- |
| 147: peptide found in CNR2 (gene looked up) (GLLSALENV; listed as Homo sapiens) [compound 147] | CLL, NHL | I (<19% over-expression = I) | I (<19% over-expression = I) | IV (>70% = IV) | I (<19% over-expression = I) | I (<19% over-expression = I) | I (<19% over-expression = I) | III (50-69% = III) | I (<19% over-expression = I) | I (<19% over-expression = I) | I (<19% over-expression = I) | I (<19% over-expression = I) |  |  |
| 152: peptide found in CXCR5 (gene looked up) (ILVTSIFFL; listed as Homo sapiens) [compound 152] | CLL, NHL | I (<19% over-expression = I) | I (<19% over-expression = I) | II (20-49% = II) | I (<19% over-expression = I) | I (<19% over-expression = I) | I (<19% over-expression = I) | II (20-49% = II) | I (<19% over-expression = I) | I (<19% over-expression = I) | I (<19% over-expression = I) | I (<19% over-expression = I) |  |  |
| 158: peptide found in ERCC4 (gene looked up) (YLDPLWHQL; listed as Homo sapiens) [compound 158] | CLL, MEL, NHL | I (<19% over-expression = I) | I (<19% over-expression = I) | I (<19% over-expression = I) | I (<19% over-expression = I) | I (<19% over-expression = I) | I (<19% over-expression = I) | I (<19% over-expression = I) | I (<19% over-expression = I) | II (20-49% = II) | I (<19% over-expression = I) | I (<19% over-expression = I) | PC, OC |  |
| 246: peptide found in HSF2BP (gene looked up) (ALAGIVTNV; listed as Homo sapiens) [compound 246] | GB, CLL, SCLC, BRCA, GBC_CCC, AML | I (<19% over-expression = I) | II (20-49% = II) | I (<19% over-expression = I) | I (<19% over-expression = I) | II (20-49% = II) | I (<19% over-expression = I) | I (<19% over-expression = I) | III (50-69% = III) | I (<19% over-expression = I) | II (20-49% = II) | I (<19% over-expression = I) | NSCLC, HCC, OC, MEL, RCC |  |
| 18: peptide found in KIF18A (gene looked up) (KTASINQNV; listed as Homo sapiens) [compound 18] | SCLC, UBC, UTC, MEL | I (<19% over-expression = I) | I (<19% over-expression = I) | I (<19% over-expression = I) | I (<19% over-expression = I) | I (<19% over-expression = I) | I (<19% over-expression = I) | I (<19% over-expression = I) | I (<19% over-expression = I) | II (20-49% = II) | I (<19% over-expression = I) | I (<19% over-expression = I) | NSCLC, CRC, PC, OSCAR, OC |  |
| 8: peptide found in KIFC1 (gene looked up) (ALSSSQAEV; listed as Homo sapiens) [compound 8] | BPH, OSCAR, SCLC, UBC, UTC, BRCA, GBC_CCC, MEL, AML, NHL | I (<19% over-expression = I) | I (<19% over-expression = I) | I (<19% over-expression = I) | I (<19% over-expression = I) | I (<19% over-expression = I) | I (<19% over-expression = I) | I (<19% over-expression = I) | I (<19% over-expression = I) | I (<19% over-expression = I) | I (<19% over-expression = I) | I (<19% over-expression = I) | GB, NSCLC, OC, CRC, PC |  |
| 269: peptide found in FANCD2 (gene looked up) (GLLDCPIFL; listed as Homo sapiens) [compound 269] | CLL, UTC, AML, NHL | I (<19% over-expression = I) | I (<19% over-expression = I) | I (<19% over-expression = I) | I (<19% over-expression = I) | I (<19% over-expression = I) | I (<19% over-expression = I) | I (<19% over-expression = I) | I (<19% over-expression = I) | I (<19% over-expression = I) | I (<19% over-expression = I) | I (<19% over-expression = I) | NSCLC, CRC, OSCAR, OC |  |
| 112: peptide found in KIF4A (gene looked up) (ILAQDVAQL; listed as Homo sapiens) [compound 112] | MEL, AML, NHL |  |  |  |  |  |  |  |  |  |  |  |  | Target coverage for source genes of selected peptides, BPHI/PCA (%) ([3]; BPHI/PCA (prostate cancer) samples): I (<19% over-expression = I); Target coverage for source genes of selected peptides, CRC (%) ([3]; CRC tumor samples): IV (>70% = IV); Target coverage for source genes of selected peptides, GB (%) ([3]; GB tumor samples): III (50-69% = III); Target coverage for source genes of selected peptides, GC (%) ([3]; GC tumor samples): III (50-69% = III); Target coverage for source genes of selected peptides, HCC (%) ([3]; HCC tumor samples): I (<19% over-expression = I); Target coverage for source genes of selected peptides, NSCLC (%) ([3]; NSCLC tumor samples): II (20-49% = II); Target coverage for source genes of selected peptides, PC (%) ([3]; PC tumor samples): II (20-49% = II); Target coverage for source genes of selected peptides, RCC (%) ([3]; RCC tumor samples): I (<19% over-expression = I) |
